Like-named read-outs stand apart in the source and are kept apart here. No constants are given. Whether binding was seen depends on the method and setting. In cells and extracts the contact can be indirect. These calls come from enrichment with a bait or labelling near it, and not all partners need be listed. For part of these data: A no says only that the protein was not detected with the bait.

The chains behind the UniProt entries cited, without tags or fusion partners. Where a name states a change or a piece, a line headed by the entry shows the natural chain unless it says otherwise.
UniProt Q9SAF2: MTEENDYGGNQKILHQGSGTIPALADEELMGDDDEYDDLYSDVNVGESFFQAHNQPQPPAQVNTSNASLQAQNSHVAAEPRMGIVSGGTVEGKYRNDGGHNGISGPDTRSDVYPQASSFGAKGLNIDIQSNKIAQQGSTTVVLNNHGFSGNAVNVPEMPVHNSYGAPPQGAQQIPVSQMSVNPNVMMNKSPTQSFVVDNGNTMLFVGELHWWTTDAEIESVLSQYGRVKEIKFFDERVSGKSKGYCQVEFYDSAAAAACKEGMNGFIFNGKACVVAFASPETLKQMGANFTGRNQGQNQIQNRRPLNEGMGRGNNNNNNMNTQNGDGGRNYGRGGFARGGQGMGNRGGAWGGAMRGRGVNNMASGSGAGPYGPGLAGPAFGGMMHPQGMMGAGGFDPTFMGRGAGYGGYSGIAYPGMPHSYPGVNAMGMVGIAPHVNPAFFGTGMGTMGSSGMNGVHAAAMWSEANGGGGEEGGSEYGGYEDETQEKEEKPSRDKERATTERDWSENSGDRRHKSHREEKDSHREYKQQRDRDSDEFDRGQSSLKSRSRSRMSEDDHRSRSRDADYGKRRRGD
UniProt Q8GXS3: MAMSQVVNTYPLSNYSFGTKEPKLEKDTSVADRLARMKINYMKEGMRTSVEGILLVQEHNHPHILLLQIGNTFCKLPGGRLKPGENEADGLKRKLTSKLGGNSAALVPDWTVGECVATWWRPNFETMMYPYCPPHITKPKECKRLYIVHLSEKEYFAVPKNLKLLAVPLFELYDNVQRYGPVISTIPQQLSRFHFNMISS
UniProt Q94AF0: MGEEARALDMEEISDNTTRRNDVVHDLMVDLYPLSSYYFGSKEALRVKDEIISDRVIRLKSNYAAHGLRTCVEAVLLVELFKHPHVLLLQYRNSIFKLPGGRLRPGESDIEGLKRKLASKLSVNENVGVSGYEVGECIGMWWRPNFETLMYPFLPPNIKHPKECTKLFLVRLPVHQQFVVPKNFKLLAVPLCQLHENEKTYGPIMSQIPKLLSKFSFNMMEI

Assay in all cases: affinity purification with mass spectrometry
In assay [1] the target is AtCFI59 tagged with GFP at its N-terminus (GFP-AtCFI59) (Arabidopsis thaliana) (UniProt Q9SAF2).
Assay [2] addresses AtCFI25a tagged with GFP at its N-terminus (GFP-AtCFI25a) (Arabidopsis thaliana) (UniProt Q8GXS3).
In assay [3] the target is AtCFI68 tagged with GFP at its C-terminus (AtCFI68-GFP), in transgenic plants (Arabidopsis thaliana).
Assay [4] addresses AtCFI59 tagged with GFP at its N-terminus (GFP-AtCFI59) (Arabidopsis thaliana) (UniProt Q9SAF2). The source holds these as a separate data set.
The target in assay [5] is AtCFI25a tagged with GFP at its N-terminus (GFP-AtCFI25a) (Arabidopsis thaliana) (UniProt Q8GXS3). This is another data set of the same source.

“AtCFI25b (endogenous) (from UniProt Q94AF0)”: the binding result in assay [1] and in assay [2] was “no binding” throughout.
In the case of “AtCFI25a (endogenous) (from UniProt Q8GXS3)”, the binding result in assay [1] is on record as “binds”.

B1: AtCPSF30 (endogenous) (protein, UniProt A9LNK9-2 1-250)
chain: MEDADGLSFDFEGGLDSGPVQNTASVPVAPPENSSSAAVNVAPTYDHSSATVAGAGRGRSFRQTVCRHWLRGLCMKGDACGFLHQFDKARMPICRFFRLYGECREQDCVYKHTNEDIKECNMYKLGFCPNGPDCRYRHAKLPGPPPPVEEVLQKIQQLTTYNYGTNRLYQARNVAPQLQDRPQGQVPMQGQPQESGNLQQQQQQQPQQSQHQVSQTLIPNPADQTNRTSHPLPQGVNRCVQSPKVFNWVL
On to B1, for which the binding entry in assay [3], in assay [4] and in assay [5] was “binds” throughout.

B2: AtFIP1 (endogenous) (protein, UniProt F4KDH9 1-1196)
chain: MEEDDEFGDLYSDVLQPFQPPVVLPPPPPLPHRSIDLNLRSQDQDVSEPNSAPISRVSDNDAVKLSTQDATRQAIVDGGGDDKDMSFDIEEPDADSTPTIPGLFVTGALPGLATDRGVSQVTTRIEQQVGGGGDGGYGGQGEGDDWDSDSEDDLQIVLNDSSRNVMIGGADRRSRMGDNEDDDDEDDEDPLVIVADTDPNQPMEEQMWGEDGLQGIEGDGKDGGEAGKGSGPGGATGPPKAGYSSHGYHPFHSQFKYVRPGAAPIPGGAASVGGPSSGQVRPPANLGPMAGRGRGDWRPLGMRNASAAQKGFHQPWGSNTAGRGLDFTLPSHKTIFEVDIDSFEEKPWRYPGVEMTDYFNFGLNEESWKDYCKQLDQHRIQTTMQSRIRVYESGRTDQGYDPDLPPELAAATGAQGVPVDSSNLVKPDSVQGDSAKVPANVRPTLPPGRPIPVETGSGERLPSIDTRAPRMRDLDAIIEIVCQDSHEDEPSGENGTDQADSSLPGENVPVETSYVNNKRPDTESAEHSPAQDEPHKNLLKKQDDEISRSTDSGQSFRSSSPVGDRGTRSSSVDREDVGGEAGKDAEMGEELKMSFTSPQSAVQEDDGGESKTERSSESSKARSGSHRDFQQEEDVIQDKHSSRPANNRKQYDNNAPHQSRKNQDRGKEMERTRAASKGGRENSNPHMELDSTYIYSIASREDFDKRKERDVDGAVWRRKEDDPYSRRGGDEGSRKRDREDDPGFRQRGKMRENEIRSKDDQVPSRKHMDDAGMRNIYEPDDHINKRRKDEEYLRRSRPEKNEISYGQRESMSRVKRERDDRLEHQKRDVQHKIRDDFDDHGSLRQRDDIYMQRDGNERLRERDVLDKLKLPHEDGISARGRERQVAVRGHRGSEDRSSRMKDEYKASDKEHVTKDTLRHAKQTKRRDYPGEESSSHHRGHEDFSARTDNIVNNEKKPRQERTGAKIDKFIDTLDGQRLQDRKHKDSRRKIKEQREGTESLSKQGEQNGSSVVTGSKGTNDARNCRSEIPHQPNTAKRHKENASSGDEIHDSKRGRTKLERWASHKEREDAVSAKSSSISSKLEEKENNTNGRLSEPVHGSIGKSRDVTEEKIGHDLADTKDGSEKGPGDRHLDTVEKLKKRSERFKLPMPTEKDTTGVKKMESETLPSAKIEGPVDSEGEYVWDERSCVRIGREYA
In the case of B2, the binding entry in assay [3], in assay [4] and in assay [5] was “binds” throughout.

The values are drawn from publication doi:10.1101/2024.03.28.587165.
